PMC3100183 (Biochemistry, 2011)

Tested on: 47 KDa protein in U937 cell membranes
Format: binding
Details: U937 cell (mixed) membranes, 1 nM photoprobe

Cc1c(C(=O)NN2CCCCC2)nn(-c2ccc(Cl)cc2Cl)c1-c1ccc(I)cc1 [AM251]
Inhibition of photolabeling of the 47 KDa protein, in words: not inhibited
